Reference: the supplement of paper PMC12819154, “High-throughput peptide-centric local stability assay extends protein–ligand identification to membrane proteins, tissues and bacteria” (Nature Structural & Molecular Biology, 2025)
This is one part of the list. Small differences around the control level are noise.

By UniProt entry, the sequences of proteins in these tests, tags left out. Where a name states a change or a piece, a line headed by the entry shows the natural chain unless it says otherwise.
UniProt Q921X6: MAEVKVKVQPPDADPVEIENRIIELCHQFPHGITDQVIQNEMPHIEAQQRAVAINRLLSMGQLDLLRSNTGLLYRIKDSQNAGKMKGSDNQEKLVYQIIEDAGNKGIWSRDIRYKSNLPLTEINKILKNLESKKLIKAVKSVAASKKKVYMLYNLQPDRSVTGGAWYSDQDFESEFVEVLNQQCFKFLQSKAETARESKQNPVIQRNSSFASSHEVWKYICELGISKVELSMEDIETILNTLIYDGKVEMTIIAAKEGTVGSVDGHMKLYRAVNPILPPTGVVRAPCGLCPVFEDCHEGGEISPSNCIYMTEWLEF
UniProt Q99JP4: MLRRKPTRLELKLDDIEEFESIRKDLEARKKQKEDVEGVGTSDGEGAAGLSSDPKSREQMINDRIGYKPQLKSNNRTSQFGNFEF
UniProt Q920R0: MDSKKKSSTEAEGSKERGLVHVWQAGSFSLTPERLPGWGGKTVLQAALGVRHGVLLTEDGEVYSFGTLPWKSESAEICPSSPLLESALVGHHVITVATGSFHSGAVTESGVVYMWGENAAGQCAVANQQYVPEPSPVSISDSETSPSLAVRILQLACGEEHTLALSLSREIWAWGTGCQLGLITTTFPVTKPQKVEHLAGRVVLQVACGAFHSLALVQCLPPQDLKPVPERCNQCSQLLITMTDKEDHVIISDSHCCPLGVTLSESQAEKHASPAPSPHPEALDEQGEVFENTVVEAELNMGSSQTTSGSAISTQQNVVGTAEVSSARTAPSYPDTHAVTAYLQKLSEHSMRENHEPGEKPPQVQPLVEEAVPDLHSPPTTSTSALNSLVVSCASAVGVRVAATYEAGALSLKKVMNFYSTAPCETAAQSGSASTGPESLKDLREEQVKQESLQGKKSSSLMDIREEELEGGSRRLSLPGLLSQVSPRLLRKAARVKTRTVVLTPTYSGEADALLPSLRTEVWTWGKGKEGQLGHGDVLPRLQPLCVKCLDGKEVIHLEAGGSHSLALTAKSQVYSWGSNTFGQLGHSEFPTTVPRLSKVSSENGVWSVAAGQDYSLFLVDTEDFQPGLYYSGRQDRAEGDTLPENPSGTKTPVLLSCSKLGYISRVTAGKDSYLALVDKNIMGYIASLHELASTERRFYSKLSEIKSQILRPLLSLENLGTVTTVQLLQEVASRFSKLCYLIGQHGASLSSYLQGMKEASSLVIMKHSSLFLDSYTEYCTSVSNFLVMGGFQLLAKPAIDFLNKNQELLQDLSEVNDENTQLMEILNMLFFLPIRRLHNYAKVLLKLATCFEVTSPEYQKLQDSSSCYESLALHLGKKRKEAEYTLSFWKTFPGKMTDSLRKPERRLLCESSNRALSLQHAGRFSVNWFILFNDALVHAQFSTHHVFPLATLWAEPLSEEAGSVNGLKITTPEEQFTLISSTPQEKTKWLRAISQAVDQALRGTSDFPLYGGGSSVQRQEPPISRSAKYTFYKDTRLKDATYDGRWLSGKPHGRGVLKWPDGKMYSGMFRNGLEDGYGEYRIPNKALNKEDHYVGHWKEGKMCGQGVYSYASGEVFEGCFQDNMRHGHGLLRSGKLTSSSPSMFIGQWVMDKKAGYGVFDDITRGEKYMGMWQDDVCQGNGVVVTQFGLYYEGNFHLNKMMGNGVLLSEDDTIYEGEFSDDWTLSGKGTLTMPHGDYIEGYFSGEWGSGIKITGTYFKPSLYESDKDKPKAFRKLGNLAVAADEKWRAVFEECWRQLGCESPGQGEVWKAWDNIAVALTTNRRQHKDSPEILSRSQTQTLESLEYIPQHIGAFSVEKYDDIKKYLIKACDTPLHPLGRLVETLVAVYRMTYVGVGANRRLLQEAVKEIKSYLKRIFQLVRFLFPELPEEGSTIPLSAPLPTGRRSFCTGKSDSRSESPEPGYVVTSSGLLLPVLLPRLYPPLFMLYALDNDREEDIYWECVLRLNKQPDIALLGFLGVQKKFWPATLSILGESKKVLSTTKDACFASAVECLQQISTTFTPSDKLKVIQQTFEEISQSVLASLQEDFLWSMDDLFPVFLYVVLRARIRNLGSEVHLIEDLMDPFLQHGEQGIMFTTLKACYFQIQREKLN
UniProt Q99K23: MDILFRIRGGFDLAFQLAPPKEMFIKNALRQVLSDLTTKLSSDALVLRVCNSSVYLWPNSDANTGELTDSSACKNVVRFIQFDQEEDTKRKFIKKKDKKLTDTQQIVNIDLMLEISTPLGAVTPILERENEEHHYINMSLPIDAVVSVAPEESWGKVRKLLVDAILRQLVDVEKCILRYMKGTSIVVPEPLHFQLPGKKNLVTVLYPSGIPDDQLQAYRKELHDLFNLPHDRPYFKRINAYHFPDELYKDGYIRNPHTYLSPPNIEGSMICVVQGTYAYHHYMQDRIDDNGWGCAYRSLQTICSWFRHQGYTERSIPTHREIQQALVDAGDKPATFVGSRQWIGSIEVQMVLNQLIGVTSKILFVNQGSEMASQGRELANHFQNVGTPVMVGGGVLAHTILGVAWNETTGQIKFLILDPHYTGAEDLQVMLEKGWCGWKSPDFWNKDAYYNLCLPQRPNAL
UniProt Q99LB2: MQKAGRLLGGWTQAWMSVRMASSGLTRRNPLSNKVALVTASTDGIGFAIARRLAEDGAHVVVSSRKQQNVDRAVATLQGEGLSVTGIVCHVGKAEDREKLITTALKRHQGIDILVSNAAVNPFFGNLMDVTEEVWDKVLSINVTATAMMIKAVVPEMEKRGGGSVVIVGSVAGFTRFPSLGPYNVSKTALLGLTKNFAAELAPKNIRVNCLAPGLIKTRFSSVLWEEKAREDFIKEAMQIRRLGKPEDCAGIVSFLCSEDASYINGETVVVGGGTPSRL
UniProt Q99K90: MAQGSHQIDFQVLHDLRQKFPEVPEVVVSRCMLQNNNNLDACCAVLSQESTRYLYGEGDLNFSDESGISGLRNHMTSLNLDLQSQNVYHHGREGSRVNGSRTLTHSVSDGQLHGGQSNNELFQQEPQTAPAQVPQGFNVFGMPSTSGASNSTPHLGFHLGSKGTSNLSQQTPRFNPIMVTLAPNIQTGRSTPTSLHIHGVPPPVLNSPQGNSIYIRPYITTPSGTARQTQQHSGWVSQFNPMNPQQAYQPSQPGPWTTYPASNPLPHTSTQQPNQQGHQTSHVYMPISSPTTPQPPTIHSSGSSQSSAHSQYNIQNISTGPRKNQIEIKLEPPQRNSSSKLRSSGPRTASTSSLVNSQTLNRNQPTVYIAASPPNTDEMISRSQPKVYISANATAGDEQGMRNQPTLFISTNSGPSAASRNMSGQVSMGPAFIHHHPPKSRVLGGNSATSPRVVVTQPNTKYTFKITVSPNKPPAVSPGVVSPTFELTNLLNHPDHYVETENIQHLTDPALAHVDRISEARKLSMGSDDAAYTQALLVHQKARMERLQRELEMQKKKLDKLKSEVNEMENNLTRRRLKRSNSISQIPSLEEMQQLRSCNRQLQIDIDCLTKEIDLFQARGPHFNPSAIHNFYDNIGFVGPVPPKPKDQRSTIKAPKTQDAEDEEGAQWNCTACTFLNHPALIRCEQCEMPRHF
UniProt Q925P2: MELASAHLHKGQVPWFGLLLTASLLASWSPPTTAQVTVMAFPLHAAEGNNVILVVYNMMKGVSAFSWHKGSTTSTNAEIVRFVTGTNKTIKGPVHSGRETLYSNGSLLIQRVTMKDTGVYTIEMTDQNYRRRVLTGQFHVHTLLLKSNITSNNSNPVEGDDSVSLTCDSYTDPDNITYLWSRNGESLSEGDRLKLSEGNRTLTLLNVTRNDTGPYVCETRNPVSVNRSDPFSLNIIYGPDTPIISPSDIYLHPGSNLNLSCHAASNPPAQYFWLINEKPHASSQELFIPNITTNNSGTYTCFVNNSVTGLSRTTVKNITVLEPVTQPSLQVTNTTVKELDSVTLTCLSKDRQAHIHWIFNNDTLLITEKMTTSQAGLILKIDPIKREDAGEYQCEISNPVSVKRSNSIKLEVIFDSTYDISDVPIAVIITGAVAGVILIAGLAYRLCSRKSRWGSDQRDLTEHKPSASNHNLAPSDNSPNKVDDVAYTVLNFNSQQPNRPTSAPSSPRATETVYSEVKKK
UniProt Q921N6: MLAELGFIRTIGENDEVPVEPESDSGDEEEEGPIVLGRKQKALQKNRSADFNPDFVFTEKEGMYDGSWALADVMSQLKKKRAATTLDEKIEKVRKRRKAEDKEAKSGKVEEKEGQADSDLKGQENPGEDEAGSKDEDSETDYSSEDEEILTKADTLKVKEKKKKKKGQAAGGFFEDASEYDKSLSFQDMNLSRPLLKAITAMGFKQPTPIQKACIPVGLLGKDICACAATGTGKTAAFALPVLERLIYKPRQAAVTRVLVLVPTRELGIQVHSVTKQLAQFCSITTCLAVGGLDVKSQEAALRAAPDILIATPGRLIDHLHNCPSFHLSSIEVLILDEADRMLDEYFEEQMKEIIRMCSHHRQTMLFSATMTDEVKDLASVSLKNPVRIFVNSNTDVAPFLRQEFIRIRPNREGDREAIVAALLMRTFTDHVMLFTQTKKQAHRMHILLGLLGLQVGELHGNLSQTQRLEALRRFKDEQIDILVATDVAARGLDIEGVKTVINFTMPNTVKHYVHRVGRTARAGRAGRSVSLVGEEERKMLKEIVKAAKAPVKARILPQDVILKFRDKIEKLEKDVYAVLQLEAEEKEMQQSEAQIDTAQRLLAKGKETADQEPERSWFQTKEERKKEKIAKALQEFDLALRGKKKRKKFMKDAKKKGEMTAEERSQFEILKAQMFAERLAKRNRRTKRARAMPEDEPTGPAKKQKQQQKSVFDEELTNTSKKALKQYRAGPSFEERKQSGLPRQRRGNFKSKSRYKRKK
UniProt Q923Z3: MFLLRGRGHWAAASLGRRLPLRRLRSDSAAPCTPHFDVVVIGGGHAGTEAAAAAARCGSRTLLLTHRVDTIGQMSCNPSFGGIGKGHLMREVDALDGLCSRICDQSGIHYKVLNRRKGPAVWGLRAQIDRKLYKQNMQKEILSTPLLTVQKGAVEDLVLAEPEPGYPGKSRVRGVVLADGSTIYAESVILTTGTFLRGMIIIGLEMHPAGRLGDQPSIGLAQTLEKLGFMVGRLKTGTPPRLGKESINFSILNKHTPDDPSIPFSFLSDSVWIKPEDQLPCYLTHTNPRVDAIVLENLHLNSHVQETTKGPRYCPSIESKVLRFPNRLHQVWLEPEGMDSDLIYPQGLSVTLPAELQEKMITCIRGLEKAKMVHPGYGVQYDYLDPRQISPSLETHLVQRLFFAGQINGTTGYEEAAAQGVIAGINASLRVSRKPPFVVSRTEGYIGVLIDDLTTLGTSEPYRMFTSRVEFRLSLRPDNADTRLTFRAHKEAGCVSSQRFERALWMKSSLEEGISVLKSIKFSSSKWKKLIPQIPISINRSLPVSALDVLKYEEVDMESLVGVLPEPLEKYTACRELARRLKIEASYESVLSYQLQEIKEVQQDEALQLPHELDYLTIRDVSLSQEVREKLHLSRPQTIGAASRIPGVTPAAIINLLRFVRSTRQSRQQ
UniProt Q921H9: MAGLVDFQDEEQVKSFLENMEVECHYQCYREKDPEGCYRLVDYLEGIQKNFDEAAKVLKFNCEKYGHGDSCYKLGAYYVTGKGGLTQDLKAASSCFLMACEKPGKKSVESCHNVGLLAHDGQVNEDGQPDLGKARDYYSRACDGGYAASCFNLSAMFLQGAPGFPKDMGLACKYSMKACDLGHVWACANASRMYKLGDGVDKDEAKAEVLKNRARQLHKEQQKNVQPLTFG
UniProt Q99LC3: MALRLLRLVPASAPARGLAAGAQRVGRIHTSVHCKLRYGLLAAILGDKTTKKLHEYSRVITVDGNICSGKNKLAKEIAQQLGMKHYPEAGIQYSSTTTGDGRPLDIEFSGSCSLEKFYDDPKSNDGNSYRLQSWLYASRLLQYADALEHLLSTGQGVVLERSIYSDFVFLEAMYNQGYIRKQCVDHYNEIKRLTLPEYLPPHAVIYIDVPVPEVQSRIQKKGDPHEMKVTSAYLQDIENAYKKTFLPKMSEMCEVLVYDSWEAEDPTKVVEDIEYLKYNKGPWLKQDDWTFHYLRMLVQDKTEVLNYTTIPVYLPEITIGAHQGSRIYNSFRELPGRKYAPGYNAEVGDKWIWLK
UniProt Q99K70, whole entry: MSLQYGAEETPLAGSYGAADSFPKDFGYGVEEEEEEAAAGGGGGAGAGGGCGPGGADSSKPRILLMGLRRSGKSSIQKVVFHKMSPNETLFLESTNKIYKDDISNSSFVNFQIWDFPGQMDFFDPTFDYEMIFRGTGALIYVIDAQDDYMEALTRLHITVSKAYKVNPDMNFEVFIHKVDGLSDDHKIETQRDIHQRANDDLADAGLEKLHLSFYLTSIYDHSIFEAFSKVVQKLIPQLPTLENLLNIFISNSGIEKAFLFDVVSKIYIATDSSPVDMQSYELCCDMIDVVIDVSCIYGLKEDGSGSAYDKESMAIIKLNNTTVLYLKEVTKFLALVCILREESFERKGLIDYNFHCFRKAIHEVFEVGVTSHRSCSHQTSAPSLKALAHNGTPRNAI

What follows are targets tested with CN[C@@H]1C[C@H]2O[C@@](C)([C@@H]1OC)n1c3ccccc3c3c4c(c5c6ccccc6n2c5c31)C(=O)NC4 [staurosporine] (assay: log2 fold change of tryptic peptide abundance, ligand vs vehicle (limited proteolysis) (log2 ratio); higher = more trypsin-susceptible (destabilized)). Settings: ligand concentration: 20 uM; sample: mouse liver crude lysate; replicate design: treated separately.
“UniProt Q99KS2 (peptide sequence: LAEGFDVSTDVIRR, peptide start residue: 107)” was tested, and the log2 fold change was 0.262.
In the case of “UniProt Q921X6 (peptide sequence: VKVQPPDADPVEIENR, peptide start residue: 6)”, the log2 fold change was 0.337.
In the case of “UniProt Q921C3 (peptide sequence: VVVPEAPPGMFR, peptide start residue: 742)”, the log2 fold change was -0.387.
Work on “UniProt Q99JP4 (peptide sequence: LDDIEEFESIRK, peptide start residue: 13)” yielded a log2 fold change of -0.22.
“UniProt Q921I1 (peptide sequence: CFVKLPEGTTPEK, peptide start residue: 655)” gave a log2 fold change of 0.277.
“UniProt Q99JX3 (peptide sequence: VQENSPGHR, peptide start residue: 22)” showed a log2 fold change of -0.559.
In the case of “UniProt Q920R0 (peptide sequence: VAATYEAGALSLK, peptide start residue: 401)”, the log2 fold change was -0.191.
“UniProt Q922L6 (peptide sequence: DYIMEPSIFNTLKR, peptide start residue: 56)” was tested, and the log2 fold change was 0.235.
Work on “UniProt Q920Q4 (peptide sequence: ILAHWACYK, peptide start residue: 484)” yielded a log2 fold change of 0.647.
Work on “UniProt Q99K23 (peptide sequence: ELHDLFNLPHDRPYFK, peptide start residue: 221)” yielded a log2 fold change of -0.307.
With “UniProt Q99JY9 (peptide sequence: NIVLSGGSTMFR, peptide start residue: 318)” the log2 fold change was 0.154.
For “UniProt Q925F4 (peptide sequence: GQLQLGTR, peptide start residue: 451)”, the log2 fold change was -0.0706.
In the case of “UniProt Q922Q2 (peptide sequence: LNVTDSVTNK, peptide start residue: 124)”, the log2 fold change was -0.173.
In the case of “UniProt Q99LB2 (peptide sequence: AREDFIK, peptide start residue: 229)”, the log2 fold change was 0.119.
“UniProt Q99K90 (peptide sequence: EIDLFQAR, peptide start residue: 612)” showed a log2 fold change of -0.139.
With “UniProt Q925P2 (peptide sequence: DLTEHKPSASNHNLAPSDNSPNK, peptide start residue: 459)” the log2 fold change was 0.411.
“UniProt Q99K99 (peptide sequence: LKGTQNSEVEVPR, peptide start residue: 41)” was tested, and the log2 fold change was -0.16.
Target “UniProt Q924N4 (peptide sequence: TLMMEQR, peptide start residue: 926)” has a log2 fold change of 0.123.
In the case of “UniProt Q921N6 (peptide sequence: SQFEILK, peptide start residue: 666)”, the log2 fold change was -0.137.
Target “UniProt Q99J47 (peptide sequence: TLAPGLFFR, peptide start residue: 300)” has a log2 fold change of 0.688.
“UniProt Q99KW3 (peptide sequence: HNQELHSHLSEEIDRLR, peptide start residue: 1893)” showed a log2 fold change of -0.267.
For “UniProt Q99KV1 (peptide sequence: LALQLHPDRNPDDPQAQEK, peptide start residue: 48)”, the log2 fold change was 0.179.
For “UniProt Q920G8 (peptide sequence: MQSLNPDPK, peptide start residue: 73)”, the log2 fold change was -0.559.
Target “UniProt Q99L02 (peptide sequence: DSLIDRR, peptide start residue: 178)” has a log2 fold change of -0.316.
For “UniProt Q920B9 (peptide sequence: INFYCPGSALGR, peptide start residue: 570)”, the log2 fold change was -0.276.
In the case of “UniProt Q923Z3 (peptide sequence: EAGCVSSQR, peptide start residue: 491)”, the log2 fold change was 0.255.
“UniProt Q921H9 (peptide sequence: YGHGDSCYK, peptide start residue: 65)” was tested, and the log2 fold change was -0.276.
Target “UniProt Q99LC3 (peptide sequence: YGLLAAILGDK, peptide start residue: 38)” has a log2 fold change of 0.417.
For “UniProt Q99J09 (peptide sequence: KDTPPPLVPPAAR, peptide start residue: 3)”, the log2 fold change was 0.122.
In the case of “UniProt Q99K70 (peptide sequence: SCSHQTSAPSLK, peptide start residue: 375)”, the log2 fold change was -0.0591.
Target “UniProt Q99LI8 (peptide sequence: VVQDTYQIMK, peptide start residue: 127)” has a log2 fold change of -0.406.
